Patent US4116950A (Hoffmann-La Roche Inc., priority 1978, dated 1978)

Assay: general procedure: Boc solid-phase peptide synthesis; Boc-glycyl copolystyrene-divinylbenzene resin (chloromethylated polystyrene cross-linked with 1 to 2% divinyl benzene); preformed symmetrical anhydrides of Boc-amino acids; Boc-asparagine with 1-hydro
Details: whole synthesis
[1] = scale of the general procedure 0.60 mmol glycine, 0.12 mmol for final seven residues

[Phe^27, Gly^31 ] - βh -EP (YGGFMTSEKSQTPLVTLFKNAIIKNAFKKGG; Beta-endorphin; UniProt P01189 237-267, looked up, variant Y27F E31G)
isolated yield (based on starting Boc-glycyl resin, scale 0.060 mmol): 14.4%
crude mass (scale 0.060 mmol): 97 mg
isolated mass (scale 0.060 mmol, run 1): 41.2 mg and 29.2 mg

[Nle^5, Phe^27, Gly^31 ] - βh -EP
isolated yield [1]: 28%

[Ala^6,7, Phe^27, Gly^31 ] - βh -EP (YGGFMAAEKSQTPLVTLFKNAIIKNAFKKGG; Beta-endorphin; UniProt P01189 237-267, looked up, variant T6A S7A Y27F E31G)
isolated yield [1]: 10%

[D-Thr^2, Phe^27, Gly^31 ] - βh EP
isolated yield [1]: 21%

“And” between values parts separate entries of the source, which are not always exact repeats. Equal values may be shown once.
